Reference: PubChem BioAssay AID2685 (National Center for Advancing Translational Sciences (NCATS), 2010)
Some of the results follow. Shown are side measurements of this screen, not its main read-out; they come without a call. Most of these compounds were active or inconclusive in the main read-out, so they are no random draw. Potencies come from curve fits of mixed quality, noted in brackets.

Experiment: qHTS Assay for Lipid Storage Modulators in Drosophila S3 Cells;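 as to cell number change: cells counted by Cell Tracker Red CMTPX staining in the red channel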
Conditions: BODIPY lipid droplet fluorescence, 18-24 h; for cell number change: measured here: cell count max response, cells fed with added oleic acid
Method in brief: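 Drosophila S3 cells loaded with oleic acid (400 uM, as added) and compounds at several concentrations; lipid droplets imaged by 488-nm laser-scanning cytometry, 500–530 nm intensity and object ratio to cell channel. Percent activity normalized to 20 uM Triacsin C.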

[1] = measured here: lipid fluorescence (Fed channel) AC50, cells fed with added oleic acid
[2] = measured here: cell number channel AC50, cells fed with added oleic acid

SMILES | cell number change [%] | AC50 [1] | AC50 [2]
CS(=O)(=O)N(CC(=O)NCc1ccc2c(c1)OCO2)Cc1ccccc1 | 3.31 | 3.26 µM [rising, single point] | –
Cc1cccc(C(=O)NCCC(=O)Nc2nc(C)c(Cc3ccc4c(c3)OCO4)s2)c1 | -37.1 | 4.11 µM [falling, full curve, poor fit] | 18.4 µM [falling, single point]
CC(C)c1ccc(CNc2ccc(N3CCOCC3)cc2)cc1 | -89.4 | – | –
C=CCn1c(=O)c2ccccc2n2c(SCc3nc(N)nc(Nc4ccccc4C)n3)nnc12 | 23.6 | – | 0.00517 µM [rising, full curve, poor fit]
CCOC(=O)c1cccc(NC(=O)CCn2nc(C)c(S(=O)(=O)N3CCCCC3)c2C)c1 | 6.45 | 1.03 µM [rising, partial curve] | –
COc1cc(C)c(S(=O)(=O)N2CCCC2)cc1C | 3.35 | 18.4 µM [rising, single point] | –
Cc1ccc(NC(=O)C(C)Sc2nc(=O)cc(N)n2-c2ccccc2)cc1 (centres undefined) | 79.2 | – | 10.3 µM [rising, partial curve]
COc1ccc(N2CC(C(=O)NCCc3ccc(Cl)cc3)CC2=O)c(OC)c1 (centres undefined) | – | 0.58 µM [falling, single point] | –
COCC(=O)OCC(=O)Nc1ccc(Cl)cc1[N+](=O)[O-] | 9.63 | 3.26 µM [falling, single point] | 0.517 µM [falling, single point]
CCOc1ccccc1NC(=O)CSc1nc2cc(O)ccc2c(=O)n1-c1ccc(OC)c(OC)c1 | 117 | 23.1 µM [falling, single point] | 29.1 µM [rising, single point]
COc1ccccc1NC(=O)c1ccc(N)cc1 | -9.4 | – | –
CC(=O)Nc1nonc1-c1nc2ccccc2n1CCC#N | 28 | 2.06 µM [rising, partial curve] | 4.61 µM [rising, full curve, poor fit]
CN(C)c1ccc(-c2nc3ccccn3c2/N=C/c2ccc(Br)cc2)cc1 | -78.9 | 29.1 µM [falling, single point] | 18.4 µM [falling, single point]
COc1cc2c(cc1OC)-c1c(OC)c(OC)cc3ccnc(c13)C2=O | 8.15 | – | –
Cc1ccccc1OC/C(O)=C(\C#N)c1nc2ccccc2[nH]1 | -7.45 | – | –
CCOc1ccc(S(=O)(=O)Nc2ccc(OC)nc2)cc1 | 2.14 | 29.1 µM [falling, single point] | –
CCOC(=O)c1c(S(=O)(=O)NCC(=O)Nc2cc(C)ccc2C)c(C)n(C)c1C | 2.67 | – | –
CC(NC(=O)C(c1ccccc1)c1ccccc1)c1ccc(S(N)(=O)=O)cc1 (centres undefined) | 2.63 | 35.5 µM [falling, single point] | –
Cc1c(NC(=O)C(C)Oc2ccccc2F)c(=O)n(-c2ccccc2)n1C (centres undefined) | – | 0.00461 µM [falling, full curve, poor fit] | –

SMILES | cell number change [%] | AC50 [1] | AC50 [2]
CC(NC(=O)Cn1cc(C(F)(F)F)cc(Cl)c1=O)c1ccccc1 (centres undefined) | 23.8 | 0.146 µM [rising, full curve, poor fit] | –
Cc1cc(C)n(-c2ccc(C(=O)Nc3ccc(C)c(S(=O)(=O)N(C)C)c3)cc2)n1 | -1.69 | 10.3 µM [falling, partial curve, poor fit] | –
Cc1nc(SCC(=O)Nc2cc(C)on2)c2c3c(sc2n1)CCCC3 | – | 0.58 µM [rising, single point] | 0.461 µM [rising, single point]
CCOc1ccc(CN(C)C(=O)CNC(=O)c2cc(OC)c(OC)c(OC)c2)cc1 | 22.2 | 29.1 µM [rising, single point] | –
CCOC(=O)c1sc(N2C(=O)C(O)=C(C(=O)c3ccco3)C2c2cccc([N+](=O)[O-])c2)nc1C (centres undefined) | 9.76 | 16.4 µM [rising, partial curve] | –
O=C(N/N=C1/SCC(=O)N1Cc1ccco1)c1ccccc1F | 11.9 | – | –
N#Cc1cc(O)c(-n2nnc3ccccc32)cc1C#N | -21.3 | 29.1 µM [falling, single point] | –
Cc1ccc(C2(C)NC(=O)N(CC(=O)N(C)CC(=O)Nc3cccc(F)c3)C2=O)cc1 (centres undefined) | -14.9 | 29.1 µM [rising, single point] | –
O=C(COC(=O)/C=C/c1cccc(C(F)(F)F)c1)NCc1ccc(F)cc1 | – | 20.6 µM [rising, single point] | 0.731 µM [rising, single point]
CCOc1ccccc1NC(=O)CSc1ccc(-c2sc(C)nc2C)nn1 | -26.3 | 29.1 µM [falling, single point] | –
COc1cc(C(=O)Nc2ncccc2C)ccc1OCC(=O)N1CCOCC1 | 3.05 | 6.51 µM [rising, single point] | 6.51 µM [rising, single point]
CCOC(=O)c1cn(CC)c2ccc(Br)cc2c1=O | 85.1 | 13 µM [rising, partial curve] | 5.8 µM [rising, partial curve]
O=C(/C=C/N1CCOCC1)c1ccc(-c2ccccc2)cc1 | -3.65 | 0.116 µM [falling, full curve] | –
COc1ccc(C(=O)COc2ccc(NC(C)=O)cc2)cc1 | 6.85 | 20.6 µM [rising, single point] | –
O=c1[nH]cnc2sc(-c3ccccc3)cc12 | 84.1 | 13 µM [rising, partial curve] | 7.31 µM [rising, partial curve]
Cc1ccc(S(=O)(=O)CCC(=O)Nc2ccc3nc(C)sc3c2)cc1 | -6.16 | – | –
NS(=O)(=O)c1ccc(NC(=O)c2ccc(Cl)c(S(=O)(=O)NCc3ccco3)c2)cc1 | -35 | 18.4 µM [falling, partial curve] | 18.4 µM [falling, single point]
Cc1cccc(C(=O)NCC(=O)N2CCC2)c1 | -3.58 | 0.291 µM [falling, partial curve, poor fit] | –

Only AC50 [2] and cell number change [%] (two entries from above):
SMILES,AC50 [2],cell number change [%]
COc1cc(C(=O)Nc2ncccc2C)ccc1OCC(=O)N1CCOCC1,"6.51 µM [rising, single point]",3.05
CCOC(=O)c1cn(CC)c2ccc(Br)cc2c1=O,"5.8 µM [rising, partial curve]",85.1
